## Percent effect of library compounds

The chains behind the UniProt entries cited, without tags or fusion partners. Residues count along the entry.
UniProt Q8IDJ8, 1-583: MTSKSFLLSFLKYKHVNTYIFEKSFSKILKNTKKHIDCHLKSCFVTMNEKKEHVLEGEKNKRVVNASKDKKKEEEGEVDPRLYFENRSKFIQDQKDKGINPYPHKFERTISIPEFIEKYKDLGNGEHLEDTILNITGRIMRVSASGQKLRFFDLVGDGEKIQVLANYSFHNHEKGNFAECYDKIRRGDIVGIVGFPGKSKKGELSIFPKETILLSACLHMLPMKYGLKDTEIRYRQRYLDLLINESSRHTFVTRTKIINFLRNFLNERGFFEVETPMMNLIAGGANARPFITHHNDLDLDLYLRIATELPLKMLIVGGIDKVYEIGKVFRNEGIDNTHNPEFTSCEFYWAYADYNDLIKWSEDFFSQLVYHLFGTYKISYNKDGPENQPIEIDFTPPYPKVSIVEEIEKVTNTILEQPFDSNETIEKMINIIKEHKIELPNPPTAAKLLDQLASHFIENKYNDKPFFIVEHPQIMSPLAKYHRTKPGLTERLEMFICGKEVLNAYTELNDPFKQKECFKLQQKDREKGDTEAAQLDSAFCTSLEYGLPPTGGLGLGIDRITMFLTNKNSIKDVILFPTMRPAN

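Enzyme assay of the cytosolic lysyl-tRNA synthetase in 384-well plates, read by luminescence. Target: Lysine-tRNA ligase, Plasmodium falciparum 3D7 (UniProt Q8IDJ8). Compounds at 30 µM. Higher reads as stronger inhibition, judged from the few compounds that gave an IC50. Of about 69,000 compounds tested this way, about 49 (0.071%) reached 50% or more in at least one test.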

The filed quantity is “Percent Effect” (%). The record does not define 0% and 100%; most values in the screen are far below 50% and negative numbers occur (in some assays of this library far below -100). The compounds are a random part of those screened.

| # | structure | Percent Effect |
|---|---|---|
| 1 | `COc1c(C(N)=O)cn(C)c1-c1nc2cc(NC(C)=O)ccc2n1C` | 2.085 |
| 2 | `O=C1CC(c2ccco2)c2sc(C(=O)O)c(-c3ccccc3)c2N1` (centres unmarked) | 8.397 |
| 3 | `Cc1cnccc1N1CCCN(Cc2ccc(-c3cc[nH]n3)o2)CC1` | -1.29 |
| 4 | `O=C1C[C@@H]2[C@H](CCN2Cc2ccco2)N1c1ccsc1` | -1.114 |
| 5 | `COCCN(C)C[C@@H]1CN(C(=O)C(C)(C)c2ccccc2)C[C@@H]1CO` | 1.151 |
| 6 | `Cn1ccnc1CN1C[C@H]2CN(S(=O)(=O)c3ccccc3)CCN2C1=O` | 4.681 |
| 7 | `CN(C)CCN1CC2(CCCN(c3ncc(Cl)cc3F)C2)CCC1=O` (centres unmarked) | 2.019 |
| 8 | `CSCC(C)(O)CNc1cccc(F)c1C#N` (centres unmarked) | 4.551 |
| 9 | `Cc1ccsc1CN1CC[C@H]2OCC[C@@]2(C(=O)N2CCCO2)C1` | 0.3774 |
| 10 | `CCN1CCOCC12CCN(C(=O)C1CCC1)CC2` | -2.273 |
| 11 | `Cc1c(C(=O)N(C)CC(F)(F)F)nnn1-c1ccc(F)cc1` | 1.202 |
| 12 | `Cc1cc(C)n(CC2CN(CC(=O)Nc3nncs3)CCO2)n1` (centres unmarked) | 4.788 |
| 13 | `Clc1cc(Cl)cc(CN2CCC(NCc3ncc[nH]3)CC2)c1` | 2.855 |
| 14 | `Cc1ncc(Cl)c(C(=O)N2CCCC(n3nc(C)nc3C)C2)n1` (centres unmarked) | 1.841 |
| 15 | `Cn1ncc2c(N3CC[C@H](O)C3)nc(-c3ccncc3)nc21` | -0.5208 |
| 16 | `O=C(c1ccc2ncsc2c1)N1CCC(C(=O)O)(n2cccn2)CC1` | 4.385 |
| 17 | `NC(=O)c1cnc(NCC(=O)NCc2ccco2)c(Cl)c1` | 0.9201 |
| 18 | `Cc1cc(C(C)NC(=O)c2cnc3onc(C)c3c2)c(C)o1` (centres unmarked) | 7.115 |
| 19 | `Cc1nc(CN2CCc3nn(C(C)C)c(=O)cc3C2)oc1C` | 0.1436 |
| 20 | `N#Cc1ccc(OCC(O)CN2CCC(Cn3cccn3)CC2)cc1` (centres unmarked) | 2.077 |
| 21 | `CS(=O)(=O)N1CCN(Cc2c(O)ccc3oc4c(c23)CCCC4)CC1` | 4.537 |
| 22 | `CN(C)S(=O)(=O)N1CCC(Oc2cnccn2)CC1` | 2.544 |
| 23 | `Cn1cc(CNC(=O)c2cc3c(s2)CCCCC3)cn1` | 2.979 |
| 24 | `CC(C)N(C)Cc1cnc2n1CCN(C(=O)c1cccs1)C2` | 0.6734 |
| 25 | `COC(=O)c1ccc(N2CCN(CCC#N)C(C)C2)cc1` (centres unmarked) | 0.383 |
| 26 | `NC(CC1CCCC1)c1ccccc1` (centres unmarked) | 0.243 |
| 27 | `COc1cc(C)nc(N2CCN(C(=O)c3cc(C)no3)CC2)n1` | -1.503 |
| 28 | `Cc1ccsc1CNCc1c(C(C)C)nn(C)c1N1CCOCC1` | 6.39 |
| 29 | `CN1C[C@@H](COCC2CC2)[C@H]2CCN(Cc3ccco3)CC[C@H]2C1=O` | 5.309 |
| 30 | `COC(=O)NCCC(=O)NCC1(c2cccc(Cl)c2)CC1` | 3.681 |
| 31 | `Cc1ccc(C(=O)N2CCC3(CCN(C(=O)c4cccnc4)C3)CC2)o1` | -1.502 |
| 32 | `CCCN(CCc1ccccc1)C(=O)c1ccccc1NCC(=O)O` | 1.868 |
| 33 | `Cc1cc(C(F)(F)F)nc(CCNC(C)Cn2cncn2)n1` (centres unmarked) | -2.311 |
| 34 | `CN(CCCc1nccn1C)C(=O)C1CCN(C(=O)C2CC2)CC1` | 4.213 |
| 35 | `Cc1cnn(C2CCCN(C(=O)CCc3ccncc3)C2)c1` (centres unmarked) | 0.715 |
| 36 | `Cc1ncsc1C(=O)NCCNC(=O)c1cccs1` | -0.582 |
| 37 | `O=C(NCC1CC2(CO1)CN(c1ncccn1)C2)C1CCC1` (centres unmarked) | 3.567 |
| 38 | `c1cc(CN2CC[C@@H]3[C@@H](CO[C@H]3CN3CCOCC3)C2)cs1` | 0.4862 |
| 39 | `Cc1nc2ccnn2c(C)c1CCC(=O)N1CCN(CCO)CC1` | 1.72 |
| 40 | `NC(=O)Cn1c(CO)cnc1SCC(=O)NCc1ccccc1` | 5.825 |
| 41 | `CCOCC(=O)N1CCC(C2CCN(Cc3ccc(Cl)cc3)C2)CC1` (centres unmarked) | 0.2502 |
| 42 | `O=C1CN([C@@H]2CC[C@@H](NS(=O)(=O)c3ccc(F)cc3)[C@H]2O)CCN1` | -1.027 |
| 43 | `CN(C)C(=O)N1CCC2(CC1)NC(=O)c1ccccc12` | 8.49 |
| 44 | `c1ccc(OCc2noc(CN3CCC(N4CCSCC4)CC3)n2)cc1` | 3.22 |
| 45 | `Cc1cc(=O)n(CC(=O)Nc2ccc(Cl)cc2)nc1C` | 4.13 |
| 46 | `CC(C)c1nc(N2CC[C@@H](N(C)CCc3ccccn3)[C@H](O)C2)no1` | 0.03263 |
| 47 | `NC(=O)c1c(SCCN2CCCCC2)sc2c(O)cc(=O)[nH]c12` | 6.273 |
| 48 | `Cc1nc(C)c(C(=O)NCCNc2ncccc2C(F)(F)F)s1` | 0.1059 |
| 49 | `Fc1ccc2[nH]c3c(c2c1)CCN1C(c2ccccn2)N2CCC31CC2` (centres unmarked) | 0.6294 |
| 50 | `C1CC(CO[C@@H]2CC[C@H]3[C@H]2OCCN3CC2CCOCC2)CCO1` | 2.709 |
| 51 | `CCc1nc(CC(=O)NCC(Cc2ccc(F)cc2)C(N)=O)cs1` (centres unmarked) | -1.103 |
| 52 | `COCCN(C)C1COC2(CCN(Cc3cccc(F)c3)CC2)C1` (centres unmarked) | -1.155 |
| 53 | `c1cnn(-c2ccc(CCNC3CCN(C4CC4)C3)cc2)c1` (centres unmarked) | -2.124 |
| 54 | `CCNC(=O)NC[C@H]1Cn2c(-c3ccccc3)cnc2CO1` | 4.54 |
| 55 | `Cc1ccc(CN2CC[C@@H](NC(=O)c3cccnc3)[C@H](O)C2)s1` | 3.23 |
| 56 | `CCCn1cc(C(=O)NC2CCN(CC(=O)NC3CC3)CC2)c(C)n1` | 2.856 |
| 57 | `O=C(CC1CCCO1)NCCc1ccccc1Br` (centres unmarked) | 1.689 |
| 58 | `O=C1CC[C@@H](CN(Cc2ccncc2)Cc2nc(-c3cccs3)no2)N1` | 8.387 |
| 59 | `Cn1c(=O)oc2ccc(S(=O)(=O)N3CCC(c4ccccc4)C3)cc21` (centres unmarked) | -0.0378 |
| 60 | `CN1CCC(Cc2nc(-c3ccnn3C)n(Cc3ccccc3)n2)CC1` | -1.926 |

For reference, 7 entries once more:

| structure | Percent Effect |
|---|---|
| `Cn1ncc2c(N3CC[C@H](O)C3)nc(-c3ccncc3)nc21` | -0.5208 |
| `COC(=O)c1ccc(N2CCN(CCC#N)C(C)C2)cc1` (centres unmarked) | 0.383 |
| `CN(CCCc1nccn1C)C(=O)C1CCN(C(=O)C2CC2)CC1` | 4.213 |
| `CC(C)N(C)Cc1cnc2n1CCN(C(=O)c1cccs1)C2` | 0.6734 |
| `CCCN(CCc1ccccc1)C(=O)c1ccccc1NCC(=O)O` | 1.868 |
| `O=C1CN([C@@H]2CC[C@@H](NS(=O)(=O)c3ccc(F)cc3)[C@H]2O)CCN1` | -1.027 |
| `O=C(NCC1CC2(CO1)CN(c1ncccn1)C2)C1CCC1` (centres unmarked) | 3.567 |

The values are deposited in ChEMBL (CHEMBL3988442, “University of Dundee, Small-Polar-MMV Screening Library” (2021)).